Source: PubChem BioAssay AID1159578 (Peter MacCallum Cancer Centre, 2015)
Shown is a random part of about 18,000 reagents. Of all reagents, about 1,030 (5.7%) are marked active. 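Inactive calls also include pools with fewer than 3300 nuclei, whose migration was not assessed.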 Raw values vary from plate to plate and are shown uncorrected. No sequences are given here.

- Assay: 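Knock-downs that alter how fast lymphatic endothelial cells migrate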 (primary screen)
- Cells: human lymphatic endothelial cells
- Knock-down reagent: siRNA pool against human genes, 40 nM
- Time to read-out: 48 h after transfection
- Measured: 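High-content imaging of dye-stained cells in a scratch assay measures filled wound area and nuclei per well; duplicate means given as ratio to mock and robust z-score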
- Scale: migration robust z-score: higher = faster migration into the scratch; migration relative to mock: higher = more scratch area covered than mock; nuclei per well: higher = more cells in the well
- Call rule: 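Pools averaging fewer than 3300 nuclei are never called; remaining pools count as changed when migration robust z lies outside -2 to 2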
- Calls: active = migration changed; inactive = no migration change, or too few cells

target	PubChem SID	migration robust z-score	migration class with cell-count check	migration relative to mock	nuclei per well, duplicate mean	outcome
PDIK1L (GeneID 149420)	SID255363413	0.02	migration z between -2 and 2; enough cells	0.81	5124	inactive
INSL5 (GeneID 10022)	SID255354750	0.73	migration z between -2 and 2; enough cells	1.08	6476	inactive
OR6Q1 (GeneID 219952)	SID255364216	-2.08	migration z below -2; enough cells	0.34	5302	active
PLXNA1 (GeneID 5361)	SID255351645	0.78	migration z between -2 and 2; enough cells	0.96	4068	inactive
SLC25A27 (GeneID 9481)	SID255354311	0	migration z between -2 and 2; enough cells	0.8	4960	inactive
VSIG2 (GeneID 23584)	SID255356345	-0.48	migration z between -2 and 2; enough cells	0.76	4320	inactive
C20orf141 (GeneID 128653)	SID255362809	0.17	migration z between -2 and 2; enough cells	0.93	6583	inactive
TMEM204 (GeneID 79652)	SID255360361	-1.24	migration z between -2 and 2; enough cells	0.56	3823	inactive
PAPSS2 (GeneID 9060)	SID255354002	0.52	migration z between -2 and 2; enough cells	0.9	5346	inactive
OR8H3 (GeneID 390152)	SID255365618	-0.58	migration z between -2 and 2; enough cells	0.74	8438	inactive
CD248 (GeneID 57124)	SID255359282	-0.51	migration z between -2 and 2; enough cells	0.76	5807	inactive
CNGA3 (GeneID 1261)	SID255348989	-0.42	migration z between -2 and 2; enough cells	0.72	6156	inactive
ZFYVE19 (GeneID 84936)	SID255361591	-0.64	migration z between -2 and 2; enough cells	0.72	5026	inactive
MT1B (GeneID 4490)	SID255351046	-0.54	migration z between -2 and 2; enough cells	0.74	5018	inactive
VMAC (GeneID 400673)	SID255365753	1.65	migration z between -2 and 2; enough cells	1.31	6873	inactive
ACBD3 (GeneID 64746)	SID255359969	-1.7	migration z between -2 and 2; enough cells	0.46	5154	inactive
ASB16 (GeneID 92591)	SID255362018	-7.27	under 3300 nuclei; migration not judged	-0.6	1626	inactive
LHX6 (GeneID 26468)	SID255356779	0.68	migration z between -2 and 2; enough cells	0.94	4816	inactive
PRRC2A (GeneID 7916)	SID255353336	1	migration z between -2 and 2; enough cells	1.15	7150	inactive
COPS4 (GeneID 51138)	SID255357510	1.38	migration z between -2 and 2; enough cells	1.24	5590	inactive
DLAT (GeneID 1737)	SID255349308	-0.57	migration z between -2 and 2; enough cells	0.7	5618	inactive
TNP2 (GeneID 7142)	SID255352926	1.01	migration z between -2 and 2; enough cells	1.15	6144	inactive
NPR1 (GeneID 4881)	SID255351290	1.29	migration z between -2 and 2; enough cells	1.06	5382	inactive

Called active, of those listed so far:
target	PubChem SID	migration robust z-score	migration class with cell-count check	migration relative to mock	nuclei per well, duplicate mean	outcome
OR6Q1 (GeneID 219952)	SID255364216	-2.08	migration z below -2; enough cells	0.34	5302	active
